Values from PubChem BioAssay AID1224828 (NIAID, 2016).

Assay: 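Knock-downs that increase or decrease LPS-induced p65 nuclear translocation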 (primary screen)
Cell system: mouse RAW264.7 G9 macrophage reporter cells (GFP-p65, Tnf promoter-mCherry)
Reagents: siRNA pool against mouse genes, 100 nM
Timing: 2 days siRNA transfection, then 40 min LPS before fixation
Conditions: LPS (Salmonella minnesota R595) at 10 ng/ml
Measurement: 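Imaged p65 nuclear translocation ratio, normalised to the plate median, converted to robust z-scores and averaged across two replicates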
Scale: p65 translocation robust z-score: higher = more nuclear NF-kappaB p65 after LPS than the plate median; nuclear/cytoplasmic p65 ratio: higher = more nuclear NF-kappaB p65
Call rule: 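Active if robust z is above 3.3 (negative regulators) or below -1.56, the Tlr4 control median (positive regulators); activity score 50 or more; control wells not called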
Meaning of the calls: active = hit (p65 shift raised or lowered); inactive = no clear change
Shown is a random part of about 17,000 deposited reagents. 762 of them (4.5%) were called active. 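Active calls include both raised and lowered p65 entry, mostly lowered; wells with fewer than 50 cells lack a z-score.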 The raw values are shown without normalisation. Some reagents were tested in more than one well and are listed for each.

| Target gene | p65 translocation robust z-score | nuclear/cytoplasmic p65 ratio, rep 1 | nuclear/cytoplasmic p65 ratio, rep 2 | low cell count flag | outcome |
| --- | --- | --- | --- | --- | --- |
| Rnmt (GeneID 67897) | -0.47 | 1.49 | 1.42 | enough cells to score | inactive |
| Krtap6-2 (GeneID 16701) | -0.16 | 1.48 | 1.45 | enough cells to score | inactive |
| Nek9 (GeneID 217718) | -0.58 | 1.89 | 1.3 | enough cells to score | inactive |
| Gna12 (GeneID 14673) | 0.69 | 1.57 | 1.81 | enough cells to score | inactive |
| Kdm8 (GeneID 77035) | – | 1.35 | 1.19 | fewer than 50 cells per well; well left out of scoring | inactive |
| Kank3 (GeneID 80880) | 0.36 | 1.58 | 1.64 | enough cells to score | inactive |
| Gpr45 (GeneID 93690) | 0.87 | 1.74 | 1.71 | enough cells to score | inactive |
| 6430571L13Rik (GeneID 235599) | 0.32 | 1.47 | 1.65 | enough cells to score | inactive |
| Fabp7 (GeneID 12140) | 1.61 | 1.65 | 1.6 | enough cells to score | inactive |
| Ccdc142 (GeneID 243510) | 0.24 | 1.61 | 1.56 | enough cells to score | inactive |
| Alkbh3 (GeneID 69113) | 0.68 | 1.64 | 1.79 | enough cells to score | inactive |
| Srst (GeneID 20819) | 2.06 | 1.65 | 1.5 | enough cells to score | inactive |
| Timm8b (GeneID 30057) | 0.94 | 1.49 | 1.29 | enough cells to score | inactive |
| Trappc11 (GeneID 320714) | -1.82 | 1.34 | 1.45 | enough cells to score | active |
| C1ql2 (GeneID 226359) | 1.64 | 1.61 | 1.8 | enough cells to score | inactive |
| Olfm5 (GeneID 244180) | – | 1.25 | 1.36 | fewer than 50 cells per well; well left out of scoring | inactive |
| Aldh1l2 (GeneID 216188) | -1.29 | 1.3 | 1.39 | enough cells to score | inactive |
| Trmt2b (GeneID 215201) | – | 1.16 | 1.27 | fewer than 50 cells per well; well left out of scoring | inactive |
| Ubxn6 (GeneID 66530) | 0.52 | 1.49 | 1.26 | enough cells to score | inactive |
| Cx3cl1 (GeneID 20312) | -0.26 | 1.48 | 1.31 | enough cells to score | inactive |
| Il18bp (GeneID 16068) | -0.67 | 1.35 | 1.33 | enough cells to score | inactive |
| Ibsp (GeneID 15891) | 0.32 | 1.4 | 1.49 | enough cells to score | inactive |
| Prl3d3 (GeneID 215029) | -0.56 | 1.3 | 1.19 | enough cells to score | inactive |
| Pitpna (GeneID 18738) | -0.21 | 1.46 | 1.38 | enough cells to score | inactive |
| Emsy (GeneID 233545) | 0.2 | 1.38 | 1.33 | enough cells to score | inactive |
| Gpat4 (GeneID 102247) | 1.21 | 1.51 | 1.75 | enough cells to score | inactive |
| Lpgat1 (GeneID 226856) | -1.16 | 1.3 | 1.77 | enough cells to score | inactive |

Sorted by “nuclear/cytoplasmic p65 ratio, rep 2” (lowest first): 7 of the entries above.
| Target gene | p65 translocation robust z-score | nuclear/cytoplasmic p65 ratio, rep 1 | nuclear/cytoplasmic p65 ratio, rep 2 | low cell count flag | outcome |
| --- | --- | --- | --- | --- | --- |
| Kdm8 (GeneID 77035) | – | 1.35 | 1.19 | fewer than 50 cells per well; well left out of scoring | inactive |
| Nek9 (GeneID 217718) | -0.58 | 1.89 | 1.3 | enough cells to score | inactive |
| Krtap6-2 (GeneID 16701) | -0.16 | 1.48 | 1.45 | enough cells to score | inactive |
| Kank3 (GeneID 80880) | 0.36 | 1.58 | 1.64 | enough cells to score | inactive |
| 6430571L13Rik (GeneID 235599) | 0.32 | 1.47 | 1.65 | enough cells to score | inactive |
| Gpr45 (GeneID 93690) | 0.87 | 1.74 | 1.71 | enough cells to score | inactive |
| Gna12 (GeneID 14673) | 0.69 | 1.57 | 1.81 | enough cells to score | inactive |

The listing continues:
| Target gene | p65 translocation robust z-score | nuclear/cytoplasmic p65 ratio, rep 1 | nuclear/cytoplasmic p65 ratio, rep 2 | low cell count flag | outcome |
| --- | --- | --- | --- | --- | --- |
| Zmpste24 (GeneID 230709) | 0.38 | 1.68 | 1.55 | enough cells to score | inactive |
| Hccs (GeneID 15159) | 1.14 | 1.83 | 1.7 | enough cells to score | inactive |
| Fabp6 (GeneID 16204) | 0.31 | 1.5 | 1.41 | enough cells to score | inactive |
| 6030498E09Rik (GeneID 77883) | -1.3 | 1.14 | 1.35 | enough cells to score | inactive |
| Pcdhgc3 (GeneID 93706) | -0.63 | 1.42 | 1.11 | enough cells to score | inactive |
| Uty (GeneID 22290) | – | 1.23 | 1.25 | fewer than 50 cells per well; well left out of scoring | inactive |
| Nfkbib (GeneID 18036) | 0.05 | 1.45 | 1.42 | enough cells to score | inactive |
| Ankrd33 (GeneID 208258) | – | 1.27 | 1.39 | fewer than 50 cells per well; well left out of scoring | inactive |
| Adam3 (GeneID 11497) | 0.64 | 1.71 | 1.77 | enough cells to score | inactive |
| Dlgap4 (GeneID 228836) | 3.06 | 1.95 | 1.69 | enough cells to score | inactive |
| Tep1 (GeneID 21745) | 0.19 | 1.49 | 1.6 | enough cells to score | inactive |
| Ssxb1 (GeneID 67985) | – | 1.28 | 1.15 | fewer than 50 cells per well; well left out of scoring | inactive |
| Tmem167b (GeneID 67495) | -2.36 | 1.06 | 1.17 | enough cells to score | active |
| Acap3 (GeneID 140500) | 0.86 | 1.69 | 1.96 | enough cells to score | inactive |
| B330016D10Rik (GeneID 320456) | -1.09 | 1.24 | 1.66 | enough cells to score | inactive |
| Frmpd3 (GeneID 245643) | 0.42 | 1.66 | 1.89 | enough cells to score | inactive |
| Gphr (GeneID 67549) | -0.45 | 1.53 | 1.56 | enough cells to score | inactive |
| Rnf183 (GeneID 76072) | – | 1.16 | 1.26 | fewer than 50 cells per well; well left out of scoring | inactive |
| Lama1 (GeneID 16772) | 2.07 | 1.8 | 1.61 | enough cells to score | inactive |
| Prom2 (GeneID 192212) | -0.64 | 1.33 | 1.11 | enough cells to score | inactive |
| Stat5b (GeneID 20851) | 1.05 | 1.57 | 1.84 | enough cells to score | inactive |
| Rnase4 (GeneID 58809) | 0.64 | 1.29 | 1.29 | enough cells to score | inactive |
| Ncoa7 (GeneID 211329) | 0.14 | 1.65 | 1.62 | enough cells to score | inactive |
| Hoxb4 (GeneID 15412) | -0.81 | 1.4 | 1.44 | enough cells to score | inactive |
| Cdc42se2 (GeneID 72729) | 0.77 | 1.81 | 1.49 | enough cells to score | inactive |
| Cdc42se2 (GeneID 72729) | 2.06 | 1.75 | 1.65 | enough cells to score | inactive |
| Kctd19 (GeneID 279499) | – | 1.2 | 1.36 | fewer than 50 cells per well; well left out of scoring | inactive |
| Mfn1 (GeneID 67414) | 2.82 | 2.17 | 1.95 | enough cells to score | inactive |
| Ano5 (GeneID 233246) | 1.3 | 1.83 | 1.6 | enough cells to score | inactive |
| Ppp1r3f (GeneID 54646) | -0.66 | 1.58 | 1.14 | enough cells to score | inactive |
| Map3k11 (GeneID 26403) | – | 1.78 | 1.41 | fewer than 50 cells per well; well left out of scoring | inactive |
| Tmem229b (GeneID 268567) | 1.84 | 1.48 | 1.83 | enough cells to score | inactive |
